Reference: PubChem BioAssay AID588590 (National Center for Advancing Translational Sciences (NCATS), 2011)
The campaign covered roughly 390,000 compounds. About 4,000 (1%) were called active. Inconclusive means that the source gave no clear call. Such entries were picked first, then a sample of the others. The call rests on the fitted dose curve; in most records, active means well fitted inhibition curve with a large enough effect; inconclusive means small, poorly fitted or top-dose-only effect, or another doubt; inactive means no such curve, though single readings can be large or run the other way. Potencies beside an inconclusive call are fits to weak or partial responses and may not hold up.

Sequences of proteins named here, by UniProt entry; tags and fusion partners are left off. A change or cut given only in a name is not applied to a line headed by its entry.
UniProt Q9UNA4: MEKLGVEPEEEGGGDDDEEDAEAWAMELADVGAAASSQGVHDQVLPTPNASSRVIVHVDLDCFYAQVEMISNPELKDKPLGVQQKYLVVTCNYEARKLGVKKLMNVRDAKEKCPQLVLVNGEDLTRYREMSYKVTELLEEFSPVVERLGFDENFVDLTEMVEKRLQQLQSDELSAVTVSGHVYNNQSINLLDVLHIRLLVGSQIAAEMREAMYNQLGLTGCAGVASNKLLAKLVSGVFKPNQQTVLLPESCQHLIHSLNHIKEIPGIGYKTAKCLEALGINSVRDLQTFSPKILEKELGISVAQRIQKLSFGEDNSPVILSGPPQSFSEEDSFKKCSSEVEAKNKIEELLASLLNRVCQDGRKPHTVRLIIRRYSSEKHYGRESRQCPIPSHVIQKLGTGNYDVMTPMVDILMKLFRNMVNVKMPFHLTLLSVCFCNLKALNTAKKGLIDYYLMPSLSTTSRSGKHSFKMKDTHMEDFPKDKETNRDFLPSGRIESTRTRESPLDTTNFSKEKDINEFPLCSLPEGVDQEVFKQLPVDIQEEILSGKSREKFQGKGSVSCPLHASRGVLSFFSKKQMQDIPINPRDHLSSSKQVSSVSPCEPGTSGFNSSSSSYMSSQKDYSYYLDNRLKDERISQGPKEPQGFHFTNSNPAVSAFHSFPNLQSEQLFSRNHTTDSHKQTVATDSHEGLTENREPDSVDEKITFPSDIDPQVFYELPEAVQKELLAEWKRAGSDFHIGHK

biological target: DNA polymerase iota (Homo sapiens) (UniProt Q9UNA4); test: qHTS for Inhibitors of Polymerase Iota; conditions: Pol iota fluorescent replication assay, 10 min; series mostly up to 115 µM
In short: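 Fluorescent replication assay read twice, at 0 min and 10 min after adding 50 nM (final) substrate. Enzyme (10 nM) and compounds were first incubated 15 min at room temperature; enzyme-free buffer wells were negative controls.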
Potency means the concentration at half of the fitted maximal effect.

Potency, inconclusive:
C=CCNC(=O)c1onc(CSc2ccc(F)c(F)c2)c1C(=O)O 10 µM [inhibitor, partial curve, poor fit]
O=C(NCCOc1cccc(Cl)c1Cl)c1cc(-n2cnnc2)ccc1Cl 35.5 µM [inhibitor, partial curve, poor fit]
CN(C)c1nc(NNC(=O)c2ccccc2)nc(N(C)C)n1 89.1 µM [inhibitor, single point]
COc1cccc(NC(=S)N/N=C2\CC(C)(C)Oc3ccc(O)cc32)c1 100 µM [inhibitor, single point]
CSc1ccc(-c2nc3cccc(C)n3c2Nc2ccc(Cl)cc2)cc1 89.1 µM [inhibitor, single point]
CCN1C(=O)[C@H]2[C@@H](c3ccc(-c4ccc5c(c4)OCO5)c(OC)c3)N[C@@](CC(C)C)(C(=O)OC)[C@H]2C1=O 39.8 µM [inhibitor, single point]
O=c1ccccn1Cc1c(F)cccc1Cl 7.94 µM [inhibitor, single point]
COc1cc(/C=C2\CCCc3c2nc2ccccc2c3C(=O)O)cc(Br)c1O 22.4 µM [inhibitor, single point]
Oc1ccc(NCc2ccccc2OCc2ccc(Cl)cc2)cc1 5.01 µM [inhibitor, full curve, poor fit]
CCN(CC)C(=O)CSc1n[nH]c(=S)n1N 28.2 µM [inhibitor, partial curve]
O=c1[nH]c2c(-c3nc(-c4ccc(F)cc4)cs3)c(O)cn2c2ccc(Br)cc12 89.1 µM [inhibitor, partial curve, poor fit]
COc1ccc(NC(=O)CSc2nc(O)cc(=O)n2C)cc1 3.98 µM [inhibitor, full curve, poor fit]
CSc1nc(O)c(C(c2ccc(O)cc2)c2c(O)nc(SC)[nH]c2=O)c(=O)[nH]1 28.2 µM [inhibitor, single point]
Fc1ccccc1N1CCN(c2nccn3nc(-c4ccc(Br)cc4)cc23)CC1 89.1 µM [inhibitor, single point]
O=C(NCc1ccccc1Cl)C1CCN(S(=O)(=O)c2ccc(N3CCCC3=O)cc2)CC1 56.2 µM [inhibitor, partial curve, poor fit]
O=C(CC1(O)C(=O)N(Cc2ccccc2Cl)c2ccccc21)c1ccco1 (stereo not drawn) 22.4 µM [inhibitor, full curve, poor fit]
CCc1ccc2[nH]c(=O)c(CN(Cc3ccccc3)C(=O)Nc3ccccc3OC)cc2c1 100 µM [inhibitor, partial curve, poor fit]
O=C(NC(CSSCC(NC(=O)c1ccccc1)C(=O)O)C(=O)O)c1ccccc1 (stereo not drawn) 12.6 µM [inhibitor, full curve, poor fit]
CCNC(=O)N(CC)C[C@H]1N[C@@](CC)(C(=O)OC)[C@H]2C(=O)N(Cc3ccccc3)C(=O)[C@@H]12 35.5 µM [inhibitor, single point]
COc1ccc(S(=O)(=O)N2CCN(c3nc(-c4cccs4)nc4ccccc34)CC2)cc1OC 100 µM [inhibitor, partial curve, poor fit]
CCCC(=O)NC(=S)Nc1ccc(N2CCN(C(=O)c3cccs3)CC2)cc1 79.4 µM [inhibitor, partial curve]
Cc1ccc(Nc2nc(CSc3nnc(-c4cccnc4)n3-c3ccccc3C)cs2)cc1 126 µM [inhibitor, single point]
C=CCN1C(=O)c2oc3ccccc3c(=O)c2C1c1ccc(O)c(OC)c1 (stereo not drawn) 39.8 µM [inhibitor, partial curve]
CC1CC(=O)C2=C(C1)Nc1ccccc1N=C2 (stereo not drawn) 100 µM [inhibitor, single point]
CCc1ccc(Nc2nc3ccccc3c(=O)s2)cc1 89.1 µM [inhibitor, partial curve]
NC(=O)COC(=O)c1cc(-c2ccco2)nc2ccccc12 39.8 µM [inhibitor, partial curve]
O=C(O)C1CCCN1c1ncnc2ccccc12 (stereo not drawn) 112 µM [inhibitor, single point]
CCCCCCCCCCOC(=O)Cn1c(COc2ccc(OC)cc2)[n+](C)c2ccccc21 11.2 µM [inhibitor, full curve, poor fit]

Potency, inactive:
Cc1cccc(C(=O)NNc2ncnc3c2cnn3-c2ccc(C)cc2C)c1
O=S(=O)(O)c1cccc(N=Nc2c(O)ccc3ccccc23)c1
CCOC(=O)c1c(NC(=O)C2c3ccccc3Oc3ccccc32)sc(C)c1CC
CCN(Cc1ccccc1)c1ccc(/C=N/NC(=S)NC(C)C)cc1
Cc1noc(C)c1CCC(=O)N1CCCC(CCC(=O)NCc2ccc(F)c(F)c2)C1 (stereo not drawn)
CCCCC(=O)N/N=C/c1ccc(-c2ccc([N+](=O)[O-])cc2)o1
Cc1cc(N2C(=O)C(O)=C(C(=O)c3cc4ccccc4o3)C2c2cccc(Cl)c2)no1 (stereo not drawn)
Cc1c(Br)c(=O)oc2c(Br)c(O)ccc12
Cc1ccc2c(c1)c1c(n2CC(O)CNC(CO)(CO)CO)CCCC1 (stereo not drawn)
C(=C\c1ccco1)/c1nc2ccccc2[nH]1

Sorted by count of non-hydrogen atoms (high to low): 4 of the compounds above.
Potency, inactive:
Cc1cccc(C(=O)NNc2ncnc3c2cnn3-c2ccc(C)cc2C)c1
Cc1ccc2c(c1)c1c(n2CC(O)CNC(CO)(CO)CO)CCCC1 (stereo not drawn)
C(=C\c1ccco1)/c1nc2ccccc2[nH]1
Cc1c(Br)c(=O)oc2c(Br)c(O)ccc12

Following part:

Potency, active:
O=C(CCCN1C(=O)/C(=C\c2ccco2)SC1=S)Nc1ccc(O)cc1C(=O)O 8.91 µM
COc1ccccc1NS(=O)(=O)c1cccc(C(=O)N/N=C/c2ccc(NC(C)=O)cc2)c1 50.1 µM
CSC1=N/C(=C\c2ccc(Br)o2)C(=O)S1 7.08 µM
CC(=O)C1=C(c2ccccc2)NC(=O)NC1c1ccc(O)c(O)c1 (stereo not drawn) 39.8 µM
CCCc1cc(=O)[nH]c(-n2[nH]c3c(c2=O)CCCC3)n1 15.8 µM
